# Reference: PubChem BioAssay AID1487 (National Center for Advancing Translational Sciences (NCATS), 2009)
# Several values for one entry are separate records, joined by “and”; a condition that tells them apart may be missing. Equal values may be shown once. This is one part of the list. Shown are side measurements of this screen, not its main read-out; they come without a call. Compounds called inactive in the main read-out are mostly missing here. Potencies come from curve fits of mixed quality, noted in brackets.
# Assay: qHTS Assay for Modulators of Lamin A Splicing
# Details: HeLa LMNA splicing GFP/RFP minigene ratio, 48 h
# Procedure, shortened: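 S3 HeLa cells stably expressing lamin A-EGFP splicing minigene plus DsRed2, 600 cells/well, 48 h compound exposure at 37C. Laser-scanning cytometry; analysed as GFP (500-530 nm)/RFP (575-640 nm) total intensity ratio; 0.5% DMSO vehicle.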
# [1] = measured here: RFP viability control channel
# [2] = measured here: GFP splicing reporter channel
Compound,AC50 [1],AC50 [2]
CC12CC(NC(=O)N1c1cccc(C(=O)Nc3ncn[nH]3)c1)c1ccccc1O2 (stereo unspecified),"8.91 µM [rising, partial curve, poor fit]",–
CNCCc1ccccn1,"44.7 nM [falling, single point] and 3.98 µM [rising, full curve, poor fit]","31.6 nM [falling, partial curve, poor fit] and 35.5 nM [rising, full curve]"
COc1ccc(NC(=O)N2CCC(Cc3ccccc3)CC2)cc1,–,"31.6 µM [falling, single point]"
COc1ccc(C(CC(=O)O)NC(=O)C2CCCCC2)cc1 (stereo unspecified),"0.0316 µM [falling, full curve]",–
Cc1scc(C(=O)NNC(=S)NC(C)c2ccccc2)c1C (stereo unspecified),"25.1 µM [rising, single point]","8.91 µM [rising, single point]"
Cn1cc(-c2nc3cnc(N4CCNCC4)nc3n(C3CC3)c2=O)c2ccccc21,"14.1 µM [falling, partial curve]","12.6 µM [falling, partial curve]"
CCOC(=O)c1ccc(S(=O)(=O)Nc2cc(C(=O)O)ccc2Cl)cc1,"0.00316 µM [falling, full curve, poor fit]","0.00316 µM [falling, full curve, poor fit]"
CC1CCc2cc(F)ccc2N1C(=O)c1cc2nc(-c3ccco3)cc(C(F)(F)F)n2n1 (stereo unspecified),"11.2 µM [rising, partial curve]",–
CCCC1=Nc2cc(C(=O)NCc3ccco3)ccc2Sc2ccccc21,"2.51 µM [falling, partial curve, poor fit]","35.5 µM [falling, single point]"
O=[N+]([O-])c1ccc(NNC(=S)Nc2ccccc2)cc1,"35.5 µM [rising, single point]",–
Cc1csc(NC(=O)c2c(O)c3c(n(CC(C)C)c2=O)CCCC3)n1,"5.62 µM [rising, single point]",–
COc1ccc(S(=O)(=O)n2nc(OC(=O)c3ccccc3)cc2N)cc1,"3.55 µM [falling, single point]",–
Nc1nc2c(s1)CCc1c-2cnn1-c1ccccc1,"6.31 µM [falling, partial curve, poor fit]",–
Cn1cc(CN(CCCN2CCOCC2)C(=S)Nc2cccc(Cl)c2)c2ccccc21,"15.8 µM [rising, partial curve]","28.2 µM [rising, single point]"
CCC(C)(C)NC(=O)C(c1ccc(OC)cc1)N(Cc1cccs1)C(=O)CCC(=O)Nc1cc(C)on1 (stereo unspecified),"28.2 µM [rising, single point]","12.6 µM [rising, partial curve, poor fit]"
CCOC(=O)N1CCc2c(sc3c2c(=O)n(Cc2ccccc2)c(=O)n3Cc2cccc(C)c2)C1,"11.2 µM [rising, single point]",–
CC1(C)Cc2ccccc2C(c2cc3ccccc3oc2=O)=N1,"22.4 µM [rising, partial curve]",–
O=C(Nc1cccc(S(=O)(=O)N2CCCCC2)c1)c1ccc2c(c1)OCO2,"12.6 µM [rising, partial curve]","12.6 µM [rising, partial curve]"
Cc1ccc(-n2c(C)cc(/C=N/NC(=O)Cn3c4ccccc4c(=O)c4ccccc43)c2C)cc1,"17.8 µM [rising, single point]",–
CCCOc1c(Cl)cc(C(=O)NC)cc1OC,–,"0.0158 µM [rising, full curve, poor fit]"
N/C(=N\OC(=O)CC1CCCCC1)c1ccncc1,–,"25.1 µM [falling, partial curve, poor fit]"
CSC1=NC(C)(C)C=C(/C=C/c2ccc(Cl)cc2)N1,"0.562 µM [rising, full curve, poor fit]","0.398 µM [rising, full curve, poor fit]"
COC(=O)C(Cc1ccccc1)NC(=O)COc1ccc(C(C)(C)C)cc1 (stereo unspecified),"31.6 µM [rising, single point]",–
Cc1ccccc1C(=O)Nc1ccnc(-c2ccncc2)n1,–,"0.0891 µM [falling, full curve, poor fit]"
Cc1ccccc1Nc1nn2c(=O)c3ccc(C(=O)NCc4ccccc4)cc3nc2s1,"2.82 µM [rising, partial curve]","1.41 µM [rising, full curve]"
C=CCOc1ccccc1CN1CCSCC1,–,"15.8 µM [rising, single point]"
CCC(=O)N1CCN(c2ccc(Cl)cc2NC(=O)c2cccc([N+](=O)[O-])c2)CC1,"14.1 µM [rising, partial curve]",–

# 3 neighbouring entries from above, quoted:
Compound,AC50 [1],AC50 [2]
Cc1ccc(-n2c(C)cc(/C=N/NC(=O)Cn3c4ccccc4c(=O)c4ccccc43)c2C)cc1,"17.8 µM [rising, single point]",–
CCCOc1c(Cl)cc(C(=O)NC)cc1OC,–,"0.0158 µM [rising, full curve, poor fit]"
N/C(=N\OC(=O)CC1CCCCC1)c1ccncc1,–,"25.1 µM [falling, partial curve, poor fit]"

# Next part.

Compound,AC50 [1],AC50 [2]
CCOC(=O)c1ccc(NC(=O)c2ccc(CN3CCOCC3)cc2)cc1,"7.94 µM [rising, partial curve]",–
O=C(c1ccc2nc(N3CCCCC3)sc2c1)N1CCN(Cc2ccc3c(c2)OCO3)CC1,"20 µM [rising, partial curve]","22.4 µM [rising, single point]"
COc1cc2c(cc1NC(=O)COC(=O)C(CCSC)NC(=O)c1ccccc1Cl)oc1ccccc12 (stereo unspecified),–,"0.2 µM [rising, partial curve]"
O=C(Nc1cccc(S(=O)(=O)Nc2ccc(Cl)cc2)c1)c1ccc2c(c1)OCCO2,"3.16 µM [rising, partial curve]","0.794 µM [rising, partial curve]"
COc1ccc2c(c1)CCc1sc(NC(=O)c3cccc(Br)c3)nc1-2,"2.24 µM [falling, partial curve, poor fit]",–
O=C(COc1ccccc1Cl)Nc1nc(-c2cccs2)cs1,"31.6 µM [rising, single point]","31.6 µM [rising, single point]"
Fc1ccccc1N1CC(c2ccccc2)C(c2cccs2)=N1 (stereo unspecified),–,"35.5 µM [rising, single point]"
CC12CC(NC(=O)N1CCc1ccccc1)c1ccccc1O2 (stereo unspecified),–,"10 µM [rising, partial curve]"
Oc1ccc(/C=N/Nc2ncc(Br)cn2)c(O)c1,"25.1 µM [rising, single point]",–
O=C(CSc1nc(=O)[nH]c2c1CCC2)Nc1cc(C(F)(F)F)ccc1Cl,–,"35.5 µM [falling, single point]"
Cc1cccc(C(=O)Nc2ccc3nc(SCC(=O)N4CCCC4)sc3c2)c1,"1.58 µM [falling, full curve, poor fit]","5.62 µM [falling, partial curve, poor fit]"
COc1ccccc1-c1nnc(NC(=O)c2ccc(S(=O)(=O)N(C)Cc3ccccc3)cc2)o1,"7.08 µM [rising, partial curve]",–
CCOC(=O)c1[nH]c(C)c(CCC(=O)N2CCN(c3cc(C)ccc3C)CC2)c1C,"1.41 µM [rising, full curve]","4.47 µM [rising, partial curve, poor fit]"
Clc1cccc(COn2c(-c3ccc(Cl)cc3Cl)nc3ncccc32)c1,"14.1 µM [rising, single point]",–
O=C(Cc1ccc(F)cc1)Nc1nnc(SCC(=O)N2CCCCC2)s1,–,"44.7 µM [rising, partial curve, poor fit]"
CC(Sc1nnnn1-c1ccc(Cl)cc1)C(=O)NCC(=O)Nc1ccc(F)c(F)c1F (stereo unspecified),"35.5 µM [rising, single point]","31.6 µM [rising, single point]"
COc1ccc(-c2cc(-c3cccs3)nc3sc(C#N)c(N)c23)cc1,"1.58 µM [rising, full curve, poor fit]","1.41 µM [rising, full curve, poor fit]"
COc1n[nH]c(C(=O)Nc2nc3ccccc3s2)c1[N+](=O)[O-],"6.31 µM [falling, partial curve, poor fit]","6.31 µM [falling, partial curve]"
Cc1cccc(C(=O)O/N=C/c2c(N3CCOCC3)n(C)c3ccccc23)c1,"7.94 µM [falling, partial curve]","7.94 µM [falling, partial curve]"
CCN(C(=O)c1ccc2c(Cl)c3c(nc2c1)CCC3)c1cccc(C)c1,"15.8 µM [rising, single point]","11.2 µM [rising, partial curve]"
CCOC(=O)c1ccc(-n2c(O)c(/C=N/NC(=O)C3COc4ccccc4O3)c3ccccc3c2=O)cc1 (stereo unspecified),"20 µM [falling, single point]","14.1 µM [falling, partial curve]"
COCCNS(=O)(=O)c1ccc(SC)cc1,"7.94 µM [rising, partial curve, poor fit]",–
S=C(NCCc1ccccn1)Nc1cccc(Cl)c1,"35.5 µM [rising, single point]",–
CCOc1ccccc1C1CC(=O)Nc2cc3c(cc21)OCO3 (stereo unspecified),"6.31 µM [rising, full curve]","0.794 µM [rising, full curve]"
NC(=O)CN1C(=O)C(O)(CC(=O)/C=C\C=C\c2ccccc2)c2ccccc21 (stereo unspecified),"22.4 µM [rising, single point]",–
COc1ccc(Cn2c(C3CC3)nc3ccc(NC(=O)c4ccco4)cc3c2=O)cc1,"17.8 µM [rising, single point]",–
Cc1ccc(C2(C(F)(F)F)N=C3Sc4cc(C)ccc4N3C(=O)N2)cc1 (stereo unspecified),"35.5 µM [falling, single point]",–
